No constants are given. Whether binding was seen depends on the method and setting. Some results given as binding are weak or reduced against the parent protein; the word gives no strength.
Key:
[1] = molecular target: T1, endogenous human zinc transporter 8 (ZnT8) in EndoC-βH1 cells (human) (UniProt Q8IWU4); assay: immunoblot of total EndoC-βH1 cell lysate
T1 sequence (looked up): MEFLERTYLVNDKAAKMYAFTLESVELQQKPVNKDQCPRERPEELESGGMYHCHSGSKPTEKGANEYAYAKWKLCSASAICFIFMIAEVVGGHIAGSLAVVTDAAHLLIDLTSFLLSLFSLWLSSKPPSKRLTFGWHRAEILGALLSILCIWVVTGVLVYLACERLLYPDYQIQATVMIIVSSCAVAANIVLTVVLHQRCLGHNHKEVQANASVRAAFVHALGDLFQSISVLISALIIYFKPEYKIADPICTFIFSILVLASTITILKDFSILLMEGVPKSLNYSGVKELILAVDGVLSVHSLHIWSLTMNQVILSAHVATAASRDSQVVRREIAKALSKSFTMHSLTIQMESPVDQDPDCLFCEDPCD

[2] = molecular target: T1, endogenous human zinc transporter 8 (ZnT8) in EndoC-βH1 cells (human); assay: capture of EndoC-βH1 liposomes on mAb20-PEG5K-Dynabeads, immunoblot
[3] = molecular target: T1, endogenous human zinc transporter 8 (ZnT8) in EndoC-βH1 cells (human); assay: in-cell ELISA on fixed, permeabilised EndoC-βH1 cells, HRP chemiluminescence
[4] = molecular target: T1, endogenous human zinc transporter 8 (ZnT8) in EndoC-βH1 cells (human); assay: immunoblot of liposomes from EndoC-βH1 cells probed with biotinylated mAb20 and HRP-streptavidin
[5] = molecular target: T1, endogenous human zinc transporter 8 (ZnT8) in EndoC-βH1 cells (human); assay: immunoblot of total SDS lysate of EndoC-βH1 cells, probed with mAb20 and an anti-tubulin antibody together
[6] = molecular target: T1, endogenous human zinc transporter 8 (ZnT8) in EndoC-βH1 cells (human); assay: capture of liposomes from EndoC-βH1 cells on mAb20-PEG5K-Dynabeads, SDS elution, immunoblot probed with mAb20
[7] = molecular target: T1, endogenous human zinc transporter 8 (ZnT8) in EndoC-βH1 cells (human); assay: confocal immunofluorescence of fixed and permeabilised EndoC-βH1 cells, mAb20 1:600 with anti-mouse secondary antibody, co-stained for IA2
[8] = molecular target: T1, endogenous human zinc transporter 8 (ZnT8) in EndoC-βH1 cells (human); assay: confocal immunofluorescence of fixed and permeabilised EndoC-βH1 cells, mAb20 1:600 with anti-mouse secondary antibody, co-stained for BAP31
[9] = molecular target: T1, endogenous human zinc transporter 8 (ZnT8) in EndoC-βH1 cells (human); assay: confocal immunofluorescence of fixed and permeabilised EndoC-βH1 cells, mAb20 1:600 with anti-mouse secondary antibody, co-stained for VAMP2
[10] = molecular target: T1, endogenous human zinc transporter 8 (ZnT8) in EndoC-βH1 cells (human); assay: confocal immunofluorescence of fixed and permeabilised EndoC-βH1 cells, mAb20 1:600 with anti-mouse secondary antibody, co-stained for TMED3
[11] = molecular target: T1, endogenous human zinc transporter 8 (ZnT8) in EndoC-βH1 cells (human); assay: in-cell ELISA on fixed and permeabilised EndoC-βH1 cells, mAb20 at 1:600, HRP anti-mouse IgG, chemiluminescence; the number of cells is varied
[12] = molecular target: T1, endogenous human zinc transporter 8 (ZnT8) in EndoC-βH1 cells (human); assay: confocal immunofluorescence of fixed and permeabilised EndoC-βH1 cells, mAb20 1:600 with anti-mouse secondary antibody, co-stained for insulin
[13] = molecular target: T1, endogenous human zinc transporter 8 (ZnT8) in EndoC-βH1 cells (human); assay: confocal immunofluorescence of fixed and permeabilised EndoC-βH1 cells, mAb20 1:600 with anti-mouse secondary antibody, co-stained for Golgin97

binding [1]: binds | binding [2]: binds | binding [3]: binds | binding [4]: binds | binding [5]: binds | binding [6]: binds | binding [7]: binds | binding [8]: binds | binding [9]: binds | binding [10]: binds | binding [11]: binds | binding [12]: binds | binding [13]: binds
B1: anti-ZnT8 monoclonal antibody mAb20 (antibody, mouse IgG1, kappa, V domains shown)
VH: QIQLVQSGPELKKPGETVKISCKASGYIFTNYPMHWVKQAPGKGLKWMGWINTYSGVPTHADDFKGRFAFSLETSANSAFLQINNLKNEDTATYFCTRSRITPTGGYAMDYWGQGTSVTVSS
VL: DVVMTQTPLSLPVSLGDQASISCRSSQSLVHSNGNTYLHWYLQKPGQSPNLLISKVSNRFSGVPERFSGSGSGTDFTLKISRVEAEDLGVYFCSQNTHVPWTFGGGTKLEIKR
notes: Mouse monoclonal antibody; Used free (1:600 of a 1 mg/ml stock), biotinylated, or crosslinked to Dynabeads through NHS-PEG5K-NHS; also called mouse mAb20; biotinylated mAb20
